From the supplement of paper PMC10849652
The list shows a part of the results.

Amino acid sequences for entries named in this document (tags omitted). A change or cut given only in a name is not applied to a line headed by its entry.
UniProt Q9BSF4: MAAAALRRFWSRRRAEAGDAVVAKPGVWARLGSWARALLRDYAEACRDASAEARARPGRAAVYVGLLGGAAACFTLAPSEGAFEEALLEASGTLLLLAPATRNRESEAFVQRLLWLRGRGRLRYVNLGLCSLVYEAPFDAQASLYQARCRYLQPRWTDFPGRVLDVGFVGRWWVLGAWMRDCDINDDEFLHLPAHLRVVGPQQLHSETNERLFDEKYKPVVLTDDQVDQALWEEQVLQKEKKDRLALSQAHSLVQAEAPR
UniProt Q86W42: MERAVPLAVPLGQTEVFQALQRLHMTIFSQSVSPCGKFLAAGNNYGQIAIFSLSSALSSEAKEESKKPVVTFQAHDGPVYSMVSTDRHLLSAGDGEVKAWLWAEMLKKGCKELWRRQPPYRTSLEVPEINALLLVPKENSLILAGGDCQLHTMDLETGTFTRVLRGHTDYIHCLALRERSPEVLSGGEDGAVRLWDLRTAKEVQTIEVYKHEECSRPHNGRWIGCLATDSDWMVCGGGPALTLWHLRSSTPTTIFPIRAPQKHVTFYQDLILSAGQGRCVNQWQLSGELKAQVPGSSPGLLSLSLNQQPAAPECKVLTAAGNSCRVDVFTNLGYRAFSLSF
UniProt Q5JTD0: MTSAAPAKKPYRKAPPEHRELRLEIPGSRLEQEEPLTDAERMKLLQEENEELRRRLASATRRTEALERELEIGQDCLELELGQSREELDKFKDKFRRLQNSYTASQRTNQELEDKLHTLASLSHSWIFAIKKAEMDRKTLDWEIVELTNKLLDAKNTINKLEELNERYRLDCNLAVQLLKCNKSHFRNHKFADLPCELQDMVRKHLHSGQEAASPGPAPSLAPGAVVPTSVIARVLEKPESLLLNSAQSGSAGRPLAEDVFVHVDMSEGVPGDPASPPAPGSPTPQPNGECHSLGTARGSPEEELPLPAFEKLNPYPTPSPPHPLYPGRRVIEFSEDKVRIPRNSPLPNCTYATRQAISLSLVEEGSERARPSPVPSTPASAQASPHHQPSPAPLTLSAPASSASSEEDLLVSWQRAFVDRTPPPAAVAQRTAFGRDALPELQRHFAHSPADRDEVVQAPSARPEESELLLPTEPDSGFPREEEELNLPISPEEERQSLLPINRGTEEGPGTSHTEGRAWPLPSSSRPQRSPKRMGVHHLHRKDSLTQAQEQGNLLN
UniProt Q9Y6I9: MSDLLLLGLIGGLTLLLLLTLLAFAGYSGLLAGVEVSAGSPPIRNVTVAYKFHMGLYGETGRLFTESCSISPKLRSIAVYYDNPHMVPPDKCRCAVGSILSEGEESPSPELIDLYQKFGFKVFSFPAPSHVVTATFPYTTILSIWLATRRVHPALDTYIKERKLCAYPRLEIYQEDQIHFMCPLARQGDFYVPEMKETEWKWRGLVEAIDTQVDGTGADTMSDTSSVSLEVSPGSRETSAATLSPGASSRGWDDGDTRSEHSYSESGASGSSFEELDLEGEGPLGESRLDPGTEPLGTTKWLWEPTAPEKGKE
UniProt Q8IYQ7: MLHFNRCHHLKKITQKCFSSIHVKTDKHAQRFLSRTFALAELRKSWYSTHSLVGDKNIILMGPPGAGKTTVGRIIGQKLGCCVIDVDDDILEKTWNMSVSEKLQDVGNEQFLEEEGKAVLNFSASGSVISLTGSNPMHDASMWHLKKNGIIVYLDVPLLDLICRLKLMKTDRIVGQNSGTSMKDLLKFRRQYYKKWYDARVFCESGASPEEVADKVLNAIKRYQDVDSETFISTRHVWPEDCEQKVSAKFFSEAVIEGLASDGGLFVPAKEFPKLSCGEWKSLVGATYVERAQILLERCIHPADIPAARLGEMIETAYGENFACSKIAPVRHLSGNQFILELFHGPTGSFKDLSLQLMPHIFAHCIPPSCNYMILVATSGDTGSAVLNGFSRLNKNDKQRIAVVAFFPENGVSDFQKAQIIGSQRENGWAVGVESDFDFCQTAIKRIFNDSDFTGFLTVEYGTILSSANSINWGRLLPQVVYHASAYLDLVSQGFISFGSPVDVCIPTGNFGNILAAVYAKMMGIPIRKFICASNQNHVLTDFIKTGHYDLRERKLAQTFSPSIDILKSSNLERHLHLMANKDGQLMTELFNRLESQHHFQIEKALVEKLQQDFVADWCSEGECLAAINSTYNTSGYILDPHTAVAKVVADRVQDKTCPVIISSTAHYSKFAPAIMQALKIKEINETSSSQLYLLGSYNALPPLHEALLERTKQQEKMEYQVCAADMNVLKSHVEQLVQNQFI
UniProt P04183: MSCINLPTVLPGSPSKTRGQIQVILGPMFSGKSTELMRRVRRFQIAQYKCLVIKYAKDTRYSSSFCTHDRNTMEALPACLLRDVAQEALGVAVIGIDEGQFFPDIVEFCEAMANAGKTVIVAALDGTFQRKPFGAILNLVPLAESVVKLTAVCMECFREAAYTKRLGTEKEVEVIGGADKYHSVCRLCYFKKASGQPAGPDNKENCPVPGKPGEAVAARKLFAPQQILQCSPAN
UniProt P62380: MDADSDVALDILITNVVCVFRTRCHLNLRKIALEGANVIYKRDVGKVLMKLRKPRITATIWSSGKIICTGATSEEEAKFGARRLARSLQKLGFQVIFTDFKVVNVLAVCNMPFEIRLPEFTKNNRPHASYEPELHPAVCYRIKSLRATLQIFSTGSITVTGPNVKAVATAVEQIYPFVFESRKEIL
UniProt Q8WVM0: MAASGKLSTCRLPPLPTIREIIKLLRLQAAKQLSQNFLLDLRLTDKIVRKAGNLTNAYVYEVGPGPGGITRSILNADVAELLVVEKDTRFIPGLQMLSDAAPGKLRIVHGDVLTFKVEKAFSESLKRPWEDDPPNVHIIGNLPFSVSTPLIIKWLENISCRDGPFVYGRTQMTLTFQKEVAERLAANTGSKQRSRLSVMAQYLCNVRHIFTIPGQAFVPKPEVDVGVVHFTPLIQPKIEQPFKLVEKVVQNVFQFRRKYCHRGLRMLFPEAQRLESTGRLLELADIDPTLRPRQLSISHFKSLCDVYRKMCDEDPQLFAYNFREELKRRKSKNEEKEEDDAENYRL
UniProt Q8NI27: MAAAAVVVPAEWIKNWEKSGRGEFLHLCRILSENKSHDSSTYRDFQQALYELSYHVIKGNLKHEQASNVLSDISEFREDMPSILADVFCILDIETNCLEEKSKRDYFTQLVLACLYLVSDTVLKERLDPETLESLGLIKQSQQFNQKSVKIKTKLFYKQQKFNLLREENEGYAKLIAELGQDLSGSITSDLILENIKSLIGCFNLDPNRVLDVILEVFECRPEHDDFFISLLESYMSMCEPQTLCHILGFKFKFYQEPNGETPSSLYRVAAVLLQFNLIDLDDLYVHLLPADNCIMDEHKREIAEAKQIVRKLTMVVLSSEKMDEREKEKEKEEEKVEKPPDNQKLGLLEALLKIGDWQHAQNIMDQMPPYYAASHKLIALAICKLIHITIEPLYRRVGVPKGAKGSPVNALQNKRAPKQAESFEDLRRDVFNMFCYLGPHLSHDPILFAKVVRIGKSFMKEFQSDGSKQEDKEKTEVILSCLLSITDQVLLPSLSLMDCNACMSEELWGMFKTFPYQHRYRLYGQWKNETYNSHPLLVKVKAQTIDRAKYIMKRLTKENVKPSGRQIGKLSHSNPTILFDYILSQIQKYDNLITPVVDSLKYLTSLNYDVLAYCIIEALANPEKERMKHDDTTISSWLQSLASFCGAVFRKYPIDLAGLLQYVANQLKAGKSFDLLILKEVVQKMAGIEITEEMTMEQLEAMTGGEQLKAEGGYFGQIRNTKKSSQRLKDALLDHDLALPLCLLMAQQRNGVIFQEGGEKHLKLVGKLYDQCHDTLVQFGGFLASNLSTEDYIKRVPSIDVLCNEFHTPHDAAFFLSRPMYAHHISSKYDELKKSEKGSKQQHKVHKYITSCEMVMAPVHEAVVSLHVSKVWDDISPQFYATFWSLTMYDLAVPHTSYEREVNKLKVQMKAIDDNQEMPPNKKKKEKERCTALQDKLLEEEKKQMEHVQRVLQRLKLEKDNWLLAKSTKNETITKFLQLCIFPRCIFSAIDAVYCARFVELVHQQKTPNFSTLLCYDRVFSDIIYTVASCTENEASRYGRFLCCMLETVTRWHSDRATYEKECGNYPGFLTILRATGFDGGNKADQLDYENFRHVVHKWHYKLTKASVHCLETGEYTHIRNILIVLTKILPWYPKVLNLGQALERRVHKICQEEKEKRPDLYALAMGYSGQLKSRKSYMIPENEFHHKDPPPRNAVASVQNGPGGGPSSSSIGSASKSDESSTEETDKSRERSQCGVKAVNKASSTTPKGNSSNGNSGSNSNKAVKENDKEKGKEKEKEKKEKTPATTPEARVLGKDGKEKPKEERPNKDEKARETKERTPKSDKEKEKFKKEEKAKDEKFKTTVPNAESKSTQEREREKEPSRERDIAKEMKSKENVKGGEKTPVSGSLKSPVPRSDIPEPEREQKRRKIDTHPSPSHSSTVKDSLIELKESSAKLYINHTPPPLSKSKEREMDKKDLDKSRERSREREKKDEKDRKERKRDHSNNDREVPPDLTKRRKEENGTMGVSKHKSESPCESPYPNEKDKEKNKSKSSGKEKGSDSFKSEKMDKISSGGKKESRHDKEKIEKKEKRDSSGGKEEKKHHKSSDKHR
UniProt Q9NPL8: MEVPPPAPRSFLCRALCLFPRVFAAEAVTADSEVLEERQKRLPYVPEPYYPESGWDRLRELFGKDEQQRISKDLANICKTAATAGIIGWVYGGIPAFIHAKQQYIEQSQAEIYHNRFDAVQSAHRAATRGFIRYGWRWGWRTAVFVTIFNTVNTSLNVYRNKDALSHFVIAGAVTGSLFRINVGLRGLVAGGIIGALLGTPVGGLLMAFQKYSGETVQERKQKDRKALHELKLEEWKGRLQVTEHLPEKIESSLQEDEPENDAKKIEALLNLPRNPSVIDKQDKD
UniProt O60343: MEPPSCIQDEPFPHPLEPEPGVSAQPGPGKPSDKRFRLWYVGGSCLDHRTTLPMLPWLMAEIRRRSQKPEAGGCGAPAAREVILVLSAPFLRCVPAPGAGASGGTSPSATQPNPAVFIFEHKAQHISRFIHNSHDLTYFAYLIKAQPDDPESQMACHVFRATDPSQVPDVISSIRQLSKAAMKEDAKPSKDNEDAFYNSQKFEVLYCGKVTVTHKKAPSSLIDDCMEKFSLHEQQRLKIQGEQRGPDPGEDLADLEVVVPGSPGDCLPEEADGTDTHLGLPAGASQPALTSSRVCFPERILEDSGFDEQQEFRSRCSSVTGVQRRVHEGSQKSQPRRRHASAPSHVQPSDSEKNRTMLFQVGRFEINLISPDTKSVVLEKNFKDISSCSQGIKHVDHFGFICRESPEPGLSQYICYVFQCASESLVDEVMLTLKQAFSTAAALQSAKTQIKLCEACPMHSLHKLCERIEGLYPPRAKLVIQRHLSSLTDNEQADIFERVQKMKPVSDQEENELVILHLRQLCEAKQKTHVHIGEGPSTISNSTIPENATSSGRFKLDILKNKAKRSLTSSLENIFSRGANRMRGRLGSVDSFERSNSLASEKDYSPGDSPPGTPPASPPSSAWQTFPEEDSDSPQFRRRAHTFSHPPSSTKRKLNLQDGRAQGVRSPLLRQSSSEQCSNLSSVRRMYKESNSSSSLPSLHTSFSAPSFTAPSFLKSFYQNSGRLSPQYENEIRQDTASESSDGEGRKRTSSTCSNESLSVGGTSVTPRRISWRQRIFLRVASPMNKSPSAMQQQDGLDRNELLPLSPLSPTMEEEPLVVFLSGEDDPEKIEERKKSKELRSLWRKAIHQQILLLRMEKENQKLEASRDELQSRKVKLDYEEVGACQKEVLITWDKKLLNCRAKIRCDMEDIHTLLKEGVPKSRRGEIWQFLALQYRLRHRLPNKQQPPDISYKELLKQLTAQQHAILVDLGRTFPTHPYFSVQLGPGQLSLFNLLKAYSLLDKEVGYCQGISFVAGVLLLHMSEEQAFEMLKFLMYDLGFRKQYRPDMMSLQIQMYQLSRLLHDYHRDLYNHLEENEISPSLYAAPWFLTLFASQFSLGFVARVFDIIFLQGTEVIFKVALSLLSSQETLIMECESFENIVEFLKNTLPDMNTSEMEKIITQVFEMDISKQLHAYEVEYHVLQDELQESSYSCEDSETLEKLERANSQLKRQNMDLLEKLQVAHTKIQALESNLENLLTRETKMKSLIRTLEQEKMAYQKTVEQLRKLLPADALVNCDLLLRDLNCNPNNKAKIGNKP
UniProt O00142: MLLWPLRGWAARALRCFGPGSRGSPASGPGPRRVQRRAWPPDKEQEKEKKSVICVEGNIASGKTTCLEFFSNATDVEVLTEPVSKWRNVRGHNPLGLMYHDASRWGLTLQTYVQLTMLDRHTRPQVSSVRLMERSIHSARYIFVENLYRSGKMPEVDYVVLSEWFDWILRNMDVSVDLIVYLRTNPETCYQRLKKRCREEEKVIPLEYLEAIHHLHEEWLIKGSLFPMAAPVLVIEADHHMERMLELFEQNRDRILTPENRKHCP

Columns and labels:
Assay in all cases: log2 fold change, soluble protein after heating vs DMSO (PISA); higher = thermal stabilisation; K562 cells, 10 uM, 30 min; active = over 0.2 and 3.5 SD of the protein, either way, in both replicates (recomputed)
[1] = compound: CC[C@@H]1C(=O)N(C)c2cnc(Nc3ccc(C(=O)NC4CCN(C)CC4)cc3OC)nc2N1C1CCCC1
In short: (§1)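 Thermal stability values are relative to control samples and come from duplicates. They are expressed as log2 fold changes. For measurement, K562 cells (2×10^6 cells/mL) received 10 μM compound for 30 min, and aliquots were heated for 3 min over 48°C-58°C, pooled, and extracted at 4°C in PBS with 0.5% NP-40. Soluble protein, the supernatant after 21,000xg for 90 min, was quantified by TMTpro 16plex LC-MS/MS with equalised channel sums.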

[2] = compound: CC[C@@H]1C(=O)N(C)c2cnc(Nc3ccc(C(=O)N[C@H]4CC[C@H](N5CCN(CC6CC6)CC5)CC4)cc3OC)nc2N1C(C)C [volasertib]
In short: as §1

[3] = compound: CC[C@H](C)N1C=C(C2=C(C=C(C=C21)C3=CN=C(C=C3)N4CCNCC4)C(=O)NCC5=C(C=C(NC5=O)C)C)C
In short: as §1

[4] = compound: CC[C@H](C)[C@@H](C(=O)N[C@@H]([C@@H](C)O)C(=O)N[C@@H](CC(C)C)C(=O)[C@]1(CO1)C)NC(=O)[C@H]([C@@H](C)CC)N(C)C(=O)C [epoxomicin]
In short: as §1

[5] = compound: CCn1cc(-c2ccnc3[nH]c(-c4cccc(CN(C)C)c4)cc23)c(-c2ccc(NC(=O)N(C)C)cc2)n1
In short: as §1

[6] = compound: CN(C)CC(=O)Nc1ccc2[nH]c(=O)c3ccccc3c2c1
In short: as §1

[7] = compound: CN1C2=C(C3=C1C(=O)N(N=C3)CC4=CC(=CC=C4)N)SC(=C2)S(=O)C
In short: as §1

[8] = compound: CN1CCC(CNc2ccc3ncc(-c4cccc(OC(F)(F)F)c4)n3n2)CC1
In short: as §1

[9] = compound: CN1CCN(CCOc2cc(OC3CCOCC3)c3c(Nc4c(Cl)ccc5c4OCO5)ncnc3c2)CC1 [saracatinib]
In short: as §1

[10] = compound: CN1CCN(c2nc(C3=C(c4c[nH]c5ccccc45)C(=O)NC3=O)c3ccccc3n2)CC1 [sotrastaurin]
In short: as §1

[11] = compound: CN1CCc2c(c3ccccc3n2Cc2ccc(C(=O)NO)cc2)C1 [Tubastatin A]
In short: as §1

[12] = compound: CNC(=O)C1=CC=CC=C1NC2=NC(=NC=C2Cl)NC3=C(C=C(C=C3)N4CCOCC4)OC
In short: as §1

[13] = compound: CNC(=O)c1ccc(Nc2ncc(C(F)(F)F)c(NCc3nccnc3N(C)S(C)(=O)=O)n2)cc1 [defactinib]
In short: as §1

[14] = compound: CNCc1ccc(-c2[nH]c3cc(F)cc4c3c2CCNC4=O)cc1 [rucaparib]
In short: as §1

[15] = compound: CNc1nc(-c2ccc3c(N)n[nH]c3c2)cc(N2C[C@@H](C(=O)NC3CCCCC3)CC[C@H]2C)n1
In short: as §1

[16] = compound: COC(=O)N[C@@H](C)CNc1nccc(-c2cn(C(C)C)nc2-c2cc(Cl)cc(NS(C)(=O)=O)c2F)n1 [encorafenib]
In short: as §1

[17] = compound: COC(=O)[C@H](CCSC)NC(=O)C1=C(C=C(C=C1)NC[C@H](CS)N)C2=CC=CC=C2
In short: as §1

[18] = compound: CCn1c(C(=O)N(C2CC2)C2CC2)cc2c3c(ncn3C)c(Nc3cc(C)n(C)n3)nc21
In short: as §1

[19] = compound: CN(CCOC1=CC=C(C=C1)C[C@H]2C(=O)NC(=O)S2)C3=CC=CC=N3 (racemic) [rosiglitazone]
In short: as §1

[20] = compound: CN1CC[C@H](c2c(O)cc(O)c3c(=O)cc(-c4ccccc4Cl)oc23)[C@H](O)C1 [alvocidib]
In short: as §1

Measured: log2 fold change

TIMM29 (UniProt Q9BSF4)
inactive: [1] 0.044 | [2] -0.071 | [3] 0.019 | [4] -0.013 | [5] -0.035 | [6] 0 | [7] -0.103 | [8] 0.062 | [9] 0.054 | [10] 0.051 | [11] 0.003 | [12] -0.03 | [13] 0.1 | [14] -0.008 | [15] 0.002 | [16] -0.098 | [17] 0.13

THOC6 (UniProt Q86W42)
inactive: [1] -0.037 | [2] -0.022 | [3] 0.004 | [4] 0.044 | [18] -0.021 | [5] -0.01 | [6] -0.018 | [19] 0.019 | [7] -0.034 | [8] 0.042 | [9] 0.003 | [10] 0.019 | [20] -0.057 | [11] -0.035 | [12] -0.067 | [13] -0.001 | [14] 0.043 | [15] -0.006 | [16] 0.031 | [17] 0

TJAP1 (UniProt Q5JTD0)
inactive: [1] 0.118 | [2] -0.035 | [3] 0.05 | [4] -0.01 | [18] -0.013 | [5] 0.134 | [6] -0.051 | [19] -0.027 | [7] -0.101 | [8] -0.108 | [9] -0.085 | [10] -0.032 | [20] 0.086 | [11] -0.016 | [12] 0.017 | [13] -0.15 | [14] 0.064 | [15] 0.021 | [16] -0.064 | [17] 0.046

TEX264 (UniProt Q9Y6I9)
active: [15] 0.629
inactive: [1] 0.016 | [2] 0.356 | [3] -0.073 | [4] 0 | [5] 0.499 | [6] 0.098 | [7] 0.182 | [8] 0.262 | [9] -0.041 | [10] -0.027 | [11] -0.077 | [12] 0.13 | [13] 0.112 | [14] 0.407 | [16] -0.039 | [17] 0.071

TGFBRAP1 (UniProt Q8WUH2)
inactive: [1] -0.098 | [2] -0.253 | [3] 0.128 | [4] 0.048 | [5] -0.059 | [6] 0.11 | [7] 0.195 | [8] 0.011 | [9] -0.124 | [10] 0.048 | [11] 0.134 | [12] 0.047 | [13] -0.061 | [14] 0.097 | [15] -0.051 | [16] 0.076 | [17] -0.109

TBC1D15 isoform 3 (UniProt Q8TC07)
inactive: [1] -0.221 | [3] 0.04 | [4] 0.004 | [5] -0.024 | [6] 0.031 | [7] 0.018 | [9] -0.01 | [10] -0.117 | [11] -0.011 | [12] -0.014 | [13] -0.09 | [14] 0.059 | [15] -0.012 | [16] 0.068 | [17] -0.003
active: [2] -0.485 | [8] -0.241

THNSL1 (UniProt Q8IYQ7)
inactive: [1] -0.004 | [2] 0.049 | [3] 0.043 | [4] -0.003 | [18] -0.054 | [5] -0.095 | [6] -0.003 | [19] 0.03 | [7] -0.016 | [8] -0.06 | [9] -0.005 | [10] -0.007 | [20] -0.104 | [11] -0.007 | [12] 0.056 | [13] -0.079 | [14] 0.011 | [15] -0.052 | [16] -0.016 | [17] -0.03

Fetched one by one from the list above (two):
TGFBRAP1 (UniProt Q8WUH2)
inactive: [1] -0.098 | [2] -0.253 | [3] 0.128 | [4] 0.048 | [5] -0.059 | [6] 0.11 | [7] 0.195 | [8] 0.011 | [9] -0.124 | [10] 0.048 | [11] 0.134 | [12] 0.047 | [13] -0.061 | [14] 0.097 | [15] -0.051 | [16] 0.076 | [17] -0.109

TJAP1 (UniProt Q5JTD0)
inactive: [1] 0.118 | [2] -0.035 | [3] 0.05 | [4] -0.01 | [18] -0.013 | [5] 0.134 | [6] -0.051 | [19] -0.027 | [7] -0.101 | [8] -0.108 | [9] -0.085 | [10] -0.032 | [20] 0.086 | [11] -0.016 | [12] 0.017 | [13] -0.15 | [14] 0.064 | [15] 0.021 | [16] -0.064 | [17] 0.046

Following part.

TK1 (UniProt P04183)
inactive: [1] 0.039 | [2] 0.062 | [3] -0.039 | [4] 0.084 | [5] 0.001 | [6] -0.009 | [7] -0.075 | [8] -0.046 | [9] 0.067 | [10] 0.036 | [11] 0.034 | [12] -0.013 | [13] -0.021 | [14] -0.015 | [15] -0.003 | [16] -0.005 | [17] 0.024

TBPL1 (UniProt P62380)
inactive: [1] -0.094 | [2] -0.193 | [3] 0.02 | [4] -0.055 | [18] -0.055 | [5] -0.031 | [6] 0.056 | [19] 0.076 | [7] -0.105 | [8] 0.041 | [9] -0.024 | [10] -0.051 | [20] -0.12 | [11] 0.013 | [12] 0.128 | [13] -0.076 | [14] 0.067 | [15] 0.025 | [16] 0.041 | [17] -0.007

TFB1M (UniProt Q8WVM0)
inactive: [1] 0.15 | [2] 0.144 | [3] 0.032 | [4] -0.139 | [18] 0.02 | [5] 0.07 | [6] -0.033 | [19] 0.049 | [7] 0.096 | [8] 0.277 | [9] -0.047 | [10] 0.185 | [20] 0.125 | [11] 0.088 | [12] 0.034 | [13] 0.197 | [14] 0.19 | [15] -0.026 | [16] 0.028 | [17] -0.105

THOC2 (UniProt Q8NI27)
inactive: [1] 0.021 | [2] 0.015 | [3] 0.025 | [4] -0.033 | [18] -0.039 | [5] 0.06 | [6] 0.009 | [19] 0.005 | [7] 0.089 | [8] -0.012 | [9] 0.023 | [10] -0.076 | [20] 0.057 | [11] 0.003 | [12] -0.08 | [13] -0.037 | [14] 0.162 | [15] -0.002 | [16] 0.09 | [17] -0.011

TERF2 (UniProt Q15554)
inactive: [1] 0.094 | [2] 0.053 | [3] 0.186 | [4] -0.126 | [18] -0.059 | [5] 0.1 | [6] -0.01 | [19] 0.003 | [7] -0.084 | [8] 0.083 | [9] 0.032 | [10] -0.018 | [20] 0.021 | [11] 0.071 | [12] -0.018 | [13] 0.106 | [14] 0.295 | [15] 0.098 | [16] 0.169 | [17] 0.038

TIMMDC1 (UniProt Q9NPL8)
inactive: [1] -0.015 | [2] 0.022 | [3] 0.008 | [4] -0.002 | [18] 0.021 | [5] 0.002 | [6] -0.038 | [19] 0.004 | [7] -0.006 | [8] 0.004 | [9] 0.068 | [10] -0.014 | [20] 0.055 | [11] -0.075 | [12] 0.013 | [13] 0.018 | [14] -0.036 | [15] -0.06 | [16] -0.016 | [17] 0.032

THBS4 (UniProt P35443)
inactive: [1] -0.057 | [2] -0.02 | [3] -0.069 | [4] -0.393 | [18] -0.073 | [5] 0.125 | [6] -0.116 | [19] 0.14 | [7] 0.31 | [8] -0.185 | [9] 0.09 | [10] 0.32 | [20] 0.109 | [11] -0.191 | [12] 0.246 | [13] 0.021 | [14] -0.066 | [15] -0.096 | [16] -0.075 | [17] 0.062

TBC1D4 (UniProt O60343)
inactive: [1] -0.094 | [2] -0.064 | [3] 0.016 | [4] -0.014 | [18] -0.053 | [5] -0.058 | [6] -0.001 | [19] 0.071 | [7] -0.019 | [8] -0.049 | [9] 0.021 | [10] -0.041 | [20] -0.031 | [11] 0.025 | [12] -0.025 | [13] -0.061 | [14] -0.016 | [15] -0.026 | [16] 0.003 | [17] -0.017

TK2 isoform 6 (UniProt O00142)
inactive: [1] 0.273 | [3] -0.019 | [4] -0.069 | [18] -0.034 | [5] -0.229 | [6] -0.159 | [19] 0.451 | [7] -0.01 | [8] -0.018 | [9] -0.056 | [10] 0.068 | [20] 0.181 | [11] 0.019 | [12] 0.01 | [13] -0.023 | [14] -0.121 | [15] -0.225 | [16] -0.266 | [17] 0.092

TJP1 (UniProt Q07157)
inactive: [1] -0.023 | [2] -0.166 | [3] 0.022 | [4] 0.007 | [5] -0.052 | [6] 0.012 | [7] 0 | [8] -0.071 | [9] -0.049 | [10] -0.064 | [11] 0.045 | [12] -0.099 | [13] -0.16 | [14] 0.018 | [15] 0.003 | [16] 0.029 | [17] -0.056
